# From article PMC3182218
# By UniProt entry, the sequences of proteins in these tests, tags left out. Where a name states a change or a piece, a line headed by the entry shows the natural chain unless it says otherwise. Chains listed by the source or under a name are the forms on record and can include a tag or linker.
# UniProt Q96B42: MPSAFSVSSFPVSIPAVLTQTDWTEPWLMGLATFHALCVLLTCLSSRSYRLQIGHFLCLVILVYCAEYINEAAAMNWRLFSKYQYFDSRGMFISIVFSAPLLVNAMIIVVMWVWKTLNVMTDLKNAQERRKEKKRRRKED
# TMEM18C→A (TMEM18 with all four cysteines mutated into alanines) (Q96B42, form named): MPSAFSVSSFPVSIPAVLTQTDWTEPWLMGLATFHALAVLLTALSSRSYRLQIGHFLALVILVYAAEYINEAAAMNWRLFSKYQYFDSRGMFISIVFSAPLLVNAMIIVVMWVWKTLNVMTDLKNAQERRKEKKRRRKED
# These are yes or no findings as the source states them, for the method shown. In cells and extracts the contact can be indirect. Some entries that bind do so weakly or less than the wild type.
# Target: Transmembrane protein 18 (TMEM18), Flag-tagged or HA-tagged (UniProt Q96B42)
# Assay: co-IP; 293T cells co-transfected with TMEM18-Flag and an HA-tagged TMEM18 construct; extracts in RIPA buffer, anti-FLAG M2 affinity gel, 4°C, one hour; washed with RIPA buffer plus 200 mM NaCl; blot probed with anti-HA antibody
row,binding,Substance
1,binds,TMEM18C→A (TMEM18 with all four cysteines mutated into alanines) (from UniProt Q96B42 1-140)
2,binds,"TMEM18ΔC (C-terminal deleted TMEM18, lacks the last 13 C-terminal amino acids) (from UniProt Q96B42 1-127) (domain or fragment)"
3,binds,"Transmembrane protein 18 (TMEM18), Flag-tagged or HA-tagged (from UniProt Q96B42 1-140)"
